For assay [1], the target named is T1, GFP-HS1BP3 (human) (UniProt Q53T59).
T1 sequence: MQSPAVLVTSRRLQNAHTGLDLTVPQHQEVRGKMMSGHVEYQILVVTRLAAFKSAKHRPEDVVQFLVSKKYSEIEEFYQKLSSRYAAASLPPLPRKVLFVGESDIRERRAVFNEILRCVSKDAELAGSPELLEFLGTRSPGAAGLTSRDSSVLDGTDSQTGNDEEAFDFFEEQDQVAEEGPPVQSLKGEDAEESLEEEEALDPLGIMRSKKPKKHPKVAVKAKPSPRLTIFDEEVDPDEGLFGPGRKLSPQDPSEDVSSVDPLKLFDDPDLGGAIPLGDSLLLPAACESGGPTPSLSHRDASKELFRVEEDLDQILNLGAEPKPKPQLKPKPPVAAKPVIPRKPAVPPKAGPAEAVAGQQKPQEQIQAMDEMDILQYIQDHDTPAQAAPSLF
In words: co-IP; GFP, GFP-HS1BP3 or GFP-PLD1 immunoprecipitated from cell lysates by GFP trap (Chromotek); SDS-PAGE and western blotting.

Protein sequences, listed by entry. Tags and fused reporters are not part of them. Lines headed by an entry give the natural chain unless they say otherwise; changes in a name come on top. Residues count along the entry.
UniProt Q14247: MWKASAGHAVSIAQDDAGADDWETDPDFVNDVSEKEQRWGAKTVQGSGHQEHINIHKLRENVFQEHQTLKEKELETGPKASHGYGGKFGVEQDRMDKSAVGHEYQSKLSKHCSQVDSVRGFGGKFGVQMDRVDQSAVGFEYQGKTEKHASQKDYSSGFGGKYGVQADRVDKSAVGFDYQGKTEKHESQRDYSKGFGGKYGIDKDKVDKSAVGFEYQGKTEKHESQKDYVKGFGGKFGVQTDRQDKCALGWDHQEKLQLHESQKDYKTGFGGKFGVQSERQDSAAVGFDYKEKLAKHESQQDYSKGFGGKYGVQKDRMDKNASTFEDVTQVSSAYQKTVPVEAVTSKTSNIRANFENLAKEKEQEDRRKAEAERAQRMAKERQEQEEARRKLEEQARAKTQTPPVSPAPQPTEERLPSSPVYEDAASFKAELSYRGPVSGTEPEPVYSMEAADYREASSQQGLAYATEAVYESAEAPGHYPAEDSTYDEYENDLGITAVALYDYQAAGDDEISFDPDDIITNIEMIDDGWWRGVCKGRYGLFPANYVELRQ
cortactin SH3 domain: residues 492-550 of Q14247
UniProt Q676U5: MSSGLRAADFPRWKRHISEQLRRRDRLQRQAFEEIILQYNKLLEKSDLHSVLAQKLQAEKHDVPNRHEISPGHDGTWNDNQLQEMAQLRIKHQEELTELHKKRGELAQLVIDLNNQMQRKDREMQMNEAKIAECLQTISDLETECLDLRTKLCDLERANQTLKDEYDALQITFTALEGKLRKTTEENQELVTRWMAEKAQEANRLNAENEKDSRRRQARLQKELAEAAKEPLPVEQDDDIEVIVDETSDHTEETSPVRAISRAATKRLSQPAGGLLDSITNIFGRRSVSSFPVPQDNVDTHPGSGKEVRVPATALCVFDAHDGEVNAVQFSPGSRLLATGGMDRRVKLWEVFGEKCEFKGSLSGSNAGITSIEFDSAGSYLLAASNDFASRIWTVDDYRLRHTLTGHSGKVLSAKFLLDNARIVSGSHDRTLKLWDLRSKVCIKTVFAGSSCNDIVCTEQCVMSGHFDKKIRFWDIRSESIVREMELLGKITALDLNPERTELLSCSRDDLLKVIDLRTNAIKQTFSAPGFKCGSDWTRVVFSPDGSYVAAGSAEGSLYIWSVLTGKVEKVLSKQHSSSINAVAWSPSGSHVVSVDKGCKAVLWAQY

The target in assay [2] is T2, GFP-PLD1 (UniProt Q13393).
T2 sequence: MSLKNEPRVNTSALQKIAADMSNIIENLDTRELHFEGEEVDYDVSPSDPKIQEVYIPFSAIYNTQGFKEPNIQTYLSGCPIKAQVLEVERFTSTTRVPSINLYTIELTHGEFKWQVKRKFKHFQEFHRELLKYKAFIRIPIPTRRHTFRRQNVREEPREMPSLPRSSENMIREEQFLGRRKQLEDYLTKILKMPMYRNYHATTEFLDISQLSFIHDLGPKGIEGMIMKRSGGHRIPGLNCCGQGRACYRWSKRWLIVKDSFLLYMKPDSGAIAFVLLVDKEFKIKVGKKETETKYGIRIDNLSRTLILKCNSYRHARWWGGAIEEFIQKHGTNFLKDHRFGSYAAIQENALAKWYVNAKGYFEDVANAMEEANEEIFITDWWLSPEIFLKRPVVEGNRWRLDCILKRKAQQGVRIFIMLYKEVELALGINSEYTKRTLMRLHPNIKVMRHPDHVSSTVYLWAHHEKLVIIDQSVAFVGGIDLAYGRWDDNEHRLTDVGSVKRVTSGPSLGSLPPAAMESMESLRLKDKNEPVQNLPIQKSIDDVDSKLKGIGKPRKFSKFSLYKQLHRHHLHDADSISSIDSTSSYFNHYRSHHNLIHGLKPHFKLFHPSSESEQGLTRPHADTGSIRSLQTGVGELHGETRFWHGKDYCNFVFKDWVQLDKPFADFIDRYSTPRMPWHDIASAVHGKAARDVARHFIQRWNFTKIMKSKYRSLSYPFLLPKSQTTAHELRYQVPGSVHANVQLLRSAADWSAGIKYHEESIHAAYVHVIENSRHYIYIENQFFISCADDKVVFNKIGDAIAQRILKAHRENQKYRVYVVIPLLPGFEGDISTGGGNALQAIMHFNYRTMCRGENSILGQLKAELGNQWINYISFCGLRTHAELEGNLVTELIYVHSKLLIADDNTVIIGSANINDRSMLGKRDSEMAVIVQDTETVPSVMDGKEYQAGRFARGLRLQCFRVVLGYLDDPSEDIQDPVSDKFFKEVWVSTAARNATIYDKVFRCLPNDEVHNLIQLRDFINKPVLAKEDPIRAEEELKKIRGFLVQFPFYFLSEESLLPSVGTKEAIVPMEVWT
The assay is described as above.

Assay [3] concerns the target T3, HS1 SH3 domain (UniProt P14317).
T3 sequence: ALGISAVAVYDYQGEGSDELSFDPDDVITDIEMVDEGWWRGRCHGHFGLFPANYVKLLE
Description: pull-down; taken to be the GST pull-down of the methods (glutathione sepharose, immunoblotting); whether with 1 ug recombinant GST- or MBP-tagged proteins in NETN buffer or from cell lysate is not told for this experiment.

Assay [4] addresses cortactin SH3 domain (UniProt Q14247). The description is as above.
The target of assay [5] is T1, GFP-HS1BP3 (human). Description: co-IP; GFP, GFP-HS1BP3 or GFP-PLD1 immunoprecipitated from cell lysates by GFP trap (Chromotek); SDS-PAGE and western blotting. The source holds these as a separate data set.

Consider 4 molecules from PMC5412012, “HS1BP3 negatively regulates autophagy by modulation of phosphatidic acid levels” (Nature Communications, 2016).

Like-named read-outs stand apart in the source and are kept apart here. These are yes or no findings as the source states them, for the method shown. In cells and extracts the contact can be indirect. Some results given as binding are weak or reduced against the parent protein; the word gives no strength. For part of these data: Sequences can lack the tags named with a protein.

“ATG16L1 (over-expressed or endogenous) (from UniProt Q676U5 1-607)”: the binding result in assay [1] and in assay [2] was “no binding” each time.

Take “cortactin (endogenous) (from UniProt Q14247 1-550)”: the binding entry in assay [1] is listed as “binds”.

B1: HS1BP3 (construct of the SH3 domain interaction assay, Supplementary Fig. 3b) (protein, UniProt Q53T59 1-392)
chain: MQSPAVLVTSRRLQNAHTGLDLTVPQHQEVRGKMMSGHVEYQILVVTRLAAFKSAKHRPEDVVQFLVSKKYSEIEEFYQKLSSRYAAASLPPLPRKVLFVGESDIRERRAVFNEILRCVSKDAELAGSPELLEFLGTRSPGAAGLTSRDSSVLDGTDSQTGNDEEAFDFFEEQDQVAEEGPPVQSLKGEDAEESLEEEEALDPLGIMRSKKPKKHPKVAVKAKPSPRLTIFDEEVDPDEGLFGPGRKLSPQDPSEDVSSVDPLKLFDDPDLGGAIPLGDSLLLPAACESGGPTPSLSHRDASKELFRVEEDLDQILNLGAEPKPKPQLKPKPPVAAKPVIPRKPAVPPKAGPAEAVAGQQKPQEQIQAMDEMDILQYIQDHDTPAQAAPSLF
Take B1: the binding result in assay [3] and in assay [4] was “binds” in each case.

B2: PLD1 (over-expressed or endogenous) (enzyme, UniProt Q13393 1-1074)
chain: MSLKNEPRVNTSALQKIAADMSNIIENLDTRELHFEGEEVDYDVSPSDPKIQEVYIPFSAIYNTQGFKEPNIQTYLSGCPIKAQVLEVERFTSTTRVPSINLYTIELTHGEFKWQVKRKFKHFQEFHRELLKYKAFIRIPIPTRRHTFRRQNVREEPREMPSLPRSSENMIREEQFLGRRKQLEDYLTKILKMPMYRNYHATTEFLDISQLSFIHDLGPKGIEGMIMKRSGGHRIPGLNCCGQGRACYRWSKRWLIVKDSFLLYMKPDSGAIAFVLLVDKEFKIKVGKKETETKYGIRIDNLSRTLILKCNSYRHARWWGGAIEEFIQKHGTNFLKDHRFGSYAAIQENALAKWYVNAKGYFEDVANAMEEANEEIFITDWWLSPEIFLKRPVVEGNRWRLDCILKRKAQQGVRIFIMLYKEVELALGINSEYTKRTLMRLHPNIKVMRHPDHVSSTVYLWAHHEKLVIIDQSVAFVGGIDLAYGRWDDNEHRLTDVGSVKRVTSGPSLGSLPPAAMESMESLRLKDKNEPVQNLPIQKSIDDVDSKLKGIGKPRKFSKFSLYKQLHRHHLHDADSISSIDSTSSYFNHYRSHHNLIHGLKPHFKLFHPSSESEQGLTRPHADTGSIRSLQTGVGELHGETRFWHGKDYCNFVFKDWVQLDKPFADFIDRYSTPRMPWHDIASAVHGKAARDVARHFIQRWNFTKIMKSKYRSLSYPFLLPKSQTTAHELRYQVPGSVHANVQLLRSAADWSAGIKYHEESIHAAYVHVIENSRHYIYIENQFFISCADDKVVFNKIGDAIAQRILKAHRENQKYRVYVVIPLLPGFEGDISTGGGNALQAIMHFNYRTMCRGENSILGQLKAELGNQWINYISFCGLRTHAELEGNLVTELIYVHSKLLIADDNTVIIGSANINDRSMLGKRDSEMAVIVQDTETVPSVMDGKEYQAGRFARGLRLQCFRVVLGYLDDPSEDIQDPVSDKFFKEVWVSTAARNATIYDKVFRCLPNDEVHNLIQLRDFINKPVLAKEDPIRAEEELKKIRGFLVQFPFYFLSEESLLPSVGTKEAIVPMEVWT
For B2, the binding entry in assay [5] is given as “no binding”.
